Assay results as given in PMC11523213, “Fluorinated N-Heterocyclic Carbene Silver(I) Complexes with High Cancer Cell Selectivity” (Organometallics, 2024).

Tests used:
MDA-MB-231 = assay: Cell viability (MTT) assay, 24 h; format: cell-based, human
Method: (§1) Cell viability studies were conducted for cisplatin (CDDP), tamoxifen (Tam), ligands HL1(PF6) to H2L5(PF6)2, and Ag(I)-NHC complexes [Ag(L1)2](PF6) to [Ag2(L5)2](PF6)2 against human cell lines: breast adenocarcinomas (MDA-MB-231 and MCF-7) and noncancerous retinal epithelia (ARPE-19). All cells were treated with compounds for 24 h, and cell viability was determined via the MTT assay. The results are depicted in Figure 3a and Table S3 (Supporting Information). […] The corresponding Ag(I)-NHC complexes are all cytotoxic against both the MDA-MB-231 and MCF-7 cell lines. […] The nonfluorinated benzyl–imidazole complex [Ag2(L5)2](PF6)2 was synthesized and screened to determine if the fluorine has any influence on cytotoxicity. When comparing the nonfluorinated complex [Ag2(L5)2](PF6)2 with the corresponding fluorinated complex [Ag2(L3)2](PF6)2, the activity against MCF-7 is statistically similar. However, on comparison of the activities against the MDA-MB-231 cell line, the addition of fluorine improves the activity by >2.4-fold, highlighting that the addition of fluorine can improve cytotoxicity and potentially selectivity toward triple negative breast cancers.
(§2) All cytotoxicity assays were conducted using human cell lines: breast adenocarcinomas (MDA-MB-231 and MCF-7) and non-cancerous epithelial retinal (ARPE-19) cell lines. All cell lines were routinely maintained as monolayer cultures in an appropriate complete medium: MCF-7 and ARPE-19 in high glucose DMEM complete medium (including 10% FBS, 1 mM sodium pyruvate, 2 mM L-glutamine and 1% pen-strep) and MDA-MB-231 in RPMI-1640 complete medium (including 10% FBS, 1 mM sodium pyruvate, 2 mM L-glutamine and 1% pen-strep) and grown in either T-25 or T-75 flasks at 37 °C and 5% CO2. Prior to chemosensitivity studies, cell monolayers were passaged using Trypsin-EDTA (0.05%) and diluted to a concentration of 4 × 10^4 cells/mL. All assays were conducted using 96-well plates, in which 100 μL of the cell suspension was added for 24 h at 37 °C and 5% CO2 and then 100 μL of compound/media dilutions for a further 24 h (compound stocks were made using sterile DMSO at 100 mM prior to dilution and a maximum of 0.1% DMSO used in each assay).

MCF-7 = assay: Cell viability (MTT) assay, 24 h; format: cell-based, human
Method: as §1, §2

ARPE-19 = assay: Cell viability (MTT) assay, 24 h, noncancerous cells; format: cell-based; settings: Homo sapiens, 24 h treatment, n = 9, noncancerous retinal epithelia, read-out: IC50 ± SD, ARPE-19
Method: All cells were treated with compounds for 24 h, and cell viability was determined via the MTT assay. […] The nonfluorinated benzyl–imidazole complex [Ag2(L5)2](PF6)2 was synthesized and screened to determine if the fluorine has any influence on cytotoxicity.
as §2

IC50 (MDA-MB-231; Homo sapiens, MDA-MB-231, 24 h treatment, MTT, n = 9, read-out: IC50 ± SD, MDA-MB-231): 39.59 ± 0.06 µM | IC50 (MCF-7; Homo sapiens, MCF7, 24 h treatment, MTT, n = 9, read-out: IC50 ± SD, MCF-7): 36 ± 1 µM
Compound: CC/C(=C(\c1ccccc1)c1ccc(OCCN(C)C)cc1)c1ccccc1 [Tam, tamoxifen]
Selectivity index (SI) MDA-MB-231 vs ARPE-19 (MDA-MB-231; SI > 1 indicates selectivity for the breast cancer line): 1.89 | MCF-7/MDA-MB-231 SR (selectivity ratio) (MDA-MB-231; ratio of IC50 MCF-7 versus MDA-MB-231): 0.91 | Selectivity index (SI) MCF-7 vs ARPE-19 (MCF-7; SI > 1 indicates selectivity for the breast cancer line, * = minimum value): 2.08 | IC50 (ARPE-19): 75 ± 1 µM
